Results from PMC9648417.
No constants are given. Whether binding was seen depends on the method and setting. Binding seen in cells or lysates may run through a third protein. Some entries that bind do so weakly or less than the wild type. Where a sequence is shown, tags or fusion partners need not be part of it.

Target: T1, Schlafen family member 11 (SLFN11), Myc-FLAG-tagged, doxycycline-inducible (human) (UniProt Q7Z7L1)
T1 sequence: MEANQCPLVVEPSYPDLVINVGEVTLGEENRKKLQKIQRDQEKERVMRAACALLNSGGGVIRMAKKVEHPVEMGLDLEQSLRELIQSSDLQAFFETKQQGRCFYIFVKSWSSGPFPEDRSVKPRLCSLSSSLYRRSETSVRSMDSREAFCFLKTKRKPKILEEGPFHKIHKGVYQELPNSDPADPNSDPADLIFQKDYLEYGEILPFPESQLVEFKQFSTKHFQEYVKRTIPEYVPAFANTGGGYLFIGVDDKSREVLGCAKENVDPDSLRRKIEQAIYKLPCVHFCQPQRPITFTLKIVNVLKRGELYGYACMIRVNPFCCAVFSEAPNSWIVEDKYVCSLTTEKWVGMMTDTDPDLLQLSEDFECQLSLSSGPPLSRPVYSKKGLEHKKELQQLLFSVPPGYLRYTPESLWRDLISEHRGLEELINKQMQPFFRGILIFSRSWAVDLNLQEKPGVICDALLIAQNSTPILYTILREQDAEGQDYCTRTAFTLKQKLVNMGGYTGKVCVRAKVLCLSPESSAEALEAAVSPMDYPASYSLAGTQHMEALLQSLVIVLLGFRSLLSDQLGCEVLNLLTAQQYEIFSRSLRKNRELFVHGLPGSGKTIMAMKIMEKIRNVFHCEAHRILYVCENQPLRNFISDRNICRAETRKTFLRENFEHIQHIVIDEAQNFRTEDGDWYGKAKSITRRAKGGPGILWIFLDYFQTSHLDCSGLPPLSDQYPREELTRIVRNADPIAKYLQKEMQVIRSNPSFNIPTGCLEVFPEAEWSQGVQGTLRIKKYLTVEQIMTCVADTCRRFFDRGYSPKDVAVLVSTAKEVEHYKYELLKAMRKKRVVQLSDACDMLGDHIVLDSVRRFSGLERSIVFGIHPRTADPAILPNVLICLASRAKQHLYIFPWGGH
Experiment: co-IP; IP of SLFN11-FLAG with FLAG-M2-conjugated sepharose beads from NP-40 lysates of DOX-induced LN229-SLFN11-Myc-FLAG cells, untreated or irradiated with 8 Gy for 30 minutes; immunoblot

- binding: binds
B1: NFκB2 (NFκB2/p100) (protein, UniProt Q00653-1 1-900)
chain: MESCYNPGLDGIIEYDDFKLNSSIVEPKEPAPETADGPYLVIVEQPKQRGFRFRYGCEGPSHGGLPGASSEKGRKTYPTVKICNYEGPAKIEVDLVTHSDPPRAHAHSLVGKQCSELGICAVSVGPKDMTAQFNNLGVLHVTKKNMMGTMIQKLQRQRLRSRPQGLTEAEQRELEQEAKELKKVMDLSIVRLRFSAFLRASDGSFSLPLKPVISQPIHDSKSPGASNLKISRMDKTAGSVRGGDEVYLLCDKVQKDDIEVRFYEDDENGWQAFGDFSPTDVHKQYAIVFRTPPYHKMKIERPVTVFLQLKRKRGGDVSDSKQFTYYPLVEDKEEVQRKRRKALPTFSQPFGGGSHMGGGSGGAAGGYGGAGGGGSLGFFPSSLAYSPYQSGAGPMGCYPGGGGGAQMAATVPSRDSGEEAAEPSAPSRTPQCEPQAPEMLQRAREYNARLFGLAQRSARALLDYGVTADARALLAGQRHLLTAQDENGDTPLHLAIIHGQTSVIEQIVYVIHHAQDLGVVNLTNHLHQTPLHLAVITGQTSVVSFLLRVGADPALLDRHGDSAMHLALRAGAGAPELLRALLQSGAPAVPQLLHMPDFEGLYPVHLAVRARSPECLDLLVDSGAEVEATERQGGRTALHLATEMEELGLVTHLVTKLRANVNARTFAGNTPLHLAAGLGYPTLTRLLLKAGADIHAENEEPLCPLPSPPTSDSDSDSEGPEKDTRSSFRGHTPLDLTCSTKVKTLLLNAAQNTMEPPLTPPSPAGPGLSLGDTALQNLEQLLDGPEAQGSWAELAERLGLRSLVDTYRQTTSPSGSLLRSYELAGGDLAGLLEALSDMGLEEGVRLLRGPETRDKLPSTAEVKEDSAYGSQSVEQEAEKLGPPPEPPGGLCHGHPQPQVH
